The results in this text go back to publication PMC4806907.

Sequences of proteins named here, by UniProt entry; tags and fusion partners are left off.
UniProt P39447: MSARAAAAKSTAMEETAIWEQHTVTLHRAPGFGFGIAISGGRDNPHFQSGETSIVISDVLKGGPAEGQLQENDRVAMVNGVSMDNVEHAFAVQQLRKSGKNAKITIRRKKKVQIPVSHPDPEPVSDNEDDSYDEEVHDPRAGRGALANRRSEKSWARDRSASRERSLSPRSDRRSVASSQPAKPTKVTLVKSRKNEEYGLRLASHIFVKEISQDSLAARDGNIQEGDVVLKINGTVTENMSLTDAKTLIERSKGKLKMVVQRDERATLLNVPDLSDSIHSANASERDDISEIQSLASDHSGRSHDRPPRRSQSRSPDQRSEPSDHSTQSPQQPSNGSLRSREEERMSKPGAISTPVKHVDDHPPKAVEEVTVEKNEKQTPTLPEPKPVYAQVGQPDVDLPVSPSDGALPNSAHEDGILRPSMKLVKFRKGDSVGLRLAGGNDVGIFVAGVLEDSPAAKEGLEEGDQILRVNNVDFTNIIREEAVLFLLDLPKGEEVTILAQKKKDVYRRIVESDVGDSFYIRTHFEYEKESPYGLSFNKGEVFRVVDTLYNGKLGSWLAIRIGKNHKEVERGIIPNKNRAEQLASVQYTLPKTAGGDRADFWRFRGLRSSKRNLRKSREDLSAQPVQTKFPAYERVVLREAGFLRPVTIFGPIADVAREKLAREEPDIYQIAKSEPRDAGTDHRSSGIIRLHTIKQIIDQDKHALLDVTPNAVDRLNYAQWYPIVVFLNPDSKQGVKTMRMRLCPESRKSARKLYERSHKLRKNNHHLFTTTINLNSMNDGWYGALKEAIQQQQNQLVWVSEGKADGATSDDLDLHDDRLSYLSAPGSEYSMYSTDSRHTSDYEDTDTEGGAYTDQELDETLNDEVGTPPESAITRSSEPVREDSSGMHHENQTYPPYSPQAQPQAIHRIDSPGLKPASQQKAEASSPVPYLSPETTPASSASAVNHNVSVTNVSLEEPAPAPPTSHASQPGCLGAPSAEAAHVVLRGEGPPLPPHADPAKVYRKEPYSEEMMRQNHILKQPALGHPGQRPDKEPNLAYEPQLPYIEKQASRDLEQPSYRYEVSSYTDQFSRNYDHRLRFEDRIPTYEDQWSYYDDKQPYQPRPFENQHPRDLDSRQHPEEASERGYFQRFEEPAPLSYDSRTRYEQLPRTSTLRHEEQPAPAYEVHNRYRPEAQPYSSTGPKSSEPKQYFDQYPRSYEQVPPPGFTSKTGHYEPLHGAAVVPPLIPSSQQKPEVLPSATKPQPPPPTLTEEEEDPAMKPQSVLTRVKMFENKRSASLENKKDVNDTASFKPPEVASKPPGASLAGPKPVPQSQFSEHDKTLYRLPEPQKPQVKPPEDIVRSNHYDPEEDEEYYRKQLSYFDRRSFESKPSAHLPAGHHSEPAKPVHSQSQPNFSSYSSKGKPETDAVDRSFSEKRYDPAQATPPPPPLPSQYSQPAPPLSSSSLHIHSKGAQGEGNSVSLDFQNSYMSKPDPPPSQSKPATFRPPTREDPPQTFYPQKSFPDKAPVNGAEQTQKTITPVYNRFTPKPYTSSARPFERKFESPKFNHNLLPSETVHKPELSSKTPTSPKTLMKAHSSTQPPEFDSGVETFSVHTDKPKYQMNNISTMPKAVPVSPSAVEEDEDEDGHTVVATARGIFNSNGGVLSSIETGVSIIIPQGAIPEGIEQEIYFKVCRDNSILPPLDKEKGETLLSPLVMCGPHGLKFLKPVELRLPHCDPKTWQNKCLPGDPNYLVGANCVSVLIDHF

This test addresses Zona occludens (ZO)-1 (mouse (endogenous in CLDE cells)) (UniProt P39447). The test can be described thus: co-IP; endogenous proteins in lysates of CLDE cells cultured for 1 week in the presence of Ca2+; antibodies against PKP1 or ZO-1 (normal rabbit IgG as control) on protein G magnetic beads, incubated with samples 1 h at 4°C; western blotting.

No constants are given. Whether binding was seen depends on the method and setting. In cells and extracts the contact can be indirect. Some entries that bind do so weakly or less than the wild type.

B1: Plakophilin (PKP)1 (protein, UniProt P97350 1-728)
chain: MNHSPLKTALAYECFQDQDNSTLALPSDQKMKTGTSGRQRVQEQVMMTVKRQKSKSSQSSTLSHSNRGSMYDGLADNYNNYGTTSRSSYFSKFQAGNGSWGYPIYNGTLKREPDNRRFSSYSQMENWSRHYPRGSCATPGAGSDICFMQKIKASRSEPDLYCDPRGTLRKGTLGSKGHKTTQNRCSFYSTCSGQKAVKKCPVRPPSCTSKQDPVYVPPISCNKDLSFGHSRASSKICSEDIECSGLTIPKAVQYLCSQDEKYQAIGAYYIQHTCFQDESAKQQVYQLGGICKLVDLLRSPNQNVQQAAAGALRNLVFRSTPNKLETRRQNGIREAVSLLRRSGSTEIQKQLTGLLWNLSSTDELKEELVADALPVLTDRVIIPFSGWCDGNSNMSREVVDPEVFFNATGCLRNLSSADAGRQTMRNYSGLIDSLMAYVQNCVAASRCDDKSVENCMCILHNLSYRLDAEVPTRYRQLEYNTRNAYTEKSSTGCFSNRGDKMMNNNYDCPLPEEETNPKGSSWLYHSDAIRTYLNLMGKSKKDATLEACAGALQNLTASKGLMSNGMSQLIGIKEKGLPQIARLLQSGNSDVVRSGASLLSNMSRHPVLHRVMGNQVFPEVTRLLTSHTGNTSNSEDILSSACYTVRNLMTSQPQMAKQYFSNSMLNNVFNLCRNTASSPKAAEAARLLLSDMWASKELQSVLRQQGFDRNMMGNIAGANNLRNFTSRF
Turning to B1, the binding result was “binds”.
